# The other results are listed elsewhere or left out.
# B1: MFG-E8 (Homo sapiens), Q08431 (protein)
# chain: MPRPRLLAALCGALLCAPSLLVALDICSKNPCHNGGLCEEISQEVRGDVFPSYTCTCLKGYAGNHCETKCVEPLGLENGNIANSQIAASSVRVTFLGLQHWVPELARLNRAGMVNAWTPSSNDDNPWIQVNLLRRMWVTGVVTQGASRLASHEYLKAFKVAYSLNGHEFDFIHDVNKKHKEFVGNWNKNAVHVNLFETPVEAQYVRLYPTSCHTACTLRFELLGCELNGCANPLGLKNNSIPDKQITASSSYKTWGLHLFSWNPSYARLDKQGNFNAWVAGSYGNDQWLQVDLGSSKEVTGIITQGARNFGSVQFVASYKVAYSNDSANWTEYQDPRTGSSKIFPGNWDNHSHKKNLFETPILARYVRILPVAWHNRIALRLELLGC
# How the values were obtained:
# Assay in all cases: glycan array binding signal (z-score within array); higher = stronger binding
# Settings in all cases: glycan notation: IUPAC condensed, linker removed
# [1] = molecular target: GlcNAc(b1-6)GalNAc
# How it was run: (§1)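 From the Consortium for Functional Glycomics database, 3228 arrays were curated, keeping only those whose protein sequence was available. Binding is given as a within-array Z-score averaged across arrays sharing a protein sequence and across linkers. Negative Z-scores can be read as non-binding.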
# [2] = molecular target: GlcNAc3Prop(b1-4)GlcNAc
# How it was run: as §1
# [3] = molecular target: GlcNAc6S(b1-3)Gal(b1-4)GlcNAc
# How it was run: as §1
# [4] = molecular target: Kdn(a2-3)Gal(b1-3)GalNAc
# How it was run: as §1
# [5] = molecular target: Kdn(a2-3)Gal(b1-3)GlcNAc
# How it was run: as §1
# [6] = molecular target: Kdn(a2-3)Gal(b1-4)Glc
# How it was run: as §1
# [7] = molecular target: Kdn(a2-3)Gal(b1-4)GlcNAc
# How it was run: as §1
# [8] = molecular target: Kdn(a2-3)Gal(b1-4)[Fuc(a1-3)]GlcNAc
# How it was run: as §1
# [9] = molecular target: Kdn(a2-6)Gal(b1-4)GlcNAc
# How it was run: as §1
# [10] = molecular target: Man(a1-2)Man(a1-2)Man(a1-3)Man
# How it was run: as §1
# [11] = molecular target: Man(a1-2)Man(a1-2)Man(a1-6)[Man(a1-3)]Man
# How it was run: as §1
# [12] = molecular target: Man(a1-2)Man(a1-3)Man
# How it was run: as §1
# [13] = molecular target: Man(a1-2)Man(a1-3)[Man(a1-2)Man(a1-6)]Man
# How it was run: as §1
# [14] = molecular target: Man(a1-2)Man(a1-3)[Man(a1-2)Man(a1-6)]Man(a1-6)[Man(a1-2)Man(a1-2)Man(a1-3)]Man
# How it was run: as §1
# [15] = molecular target: Man(a1-2)Man(a1-3)[Man(a1-2)Man(a1-6)]Man(a1-6)[Man(a1-2)Man(a1-2)Man(a1-3)]Man(b1-4)GlcNAc(b1-4)GlcNAc
# How it was run: as §1
# [16] = molecular target: Man(a1-2)Man(a1-3)[Man(a1-6)]Man(a1-6)[Man(a1-2)Man(a1-3)]Man(b1-4)GlcNAc(b1-4)GlcNAc
# How it was run: as §1
# [17] = molecular target: Man(a1-2)Man(a1-6)[Man(a1-3)]Man(a1-6)[Man(a1-2)Man(a1-2)Man(a1-3)]Man
# How it was run: as §1
# [18] = molecular target: Man(a1-2)Man(a1-6)[Man(a1-3)]Man(a1-6)[Man(a1-2)Man(a1-2)Man(a1-3)]Man(b1-4)GlcNAc(b1-4)GlcNAc
# How it was run: as §1
# [19] = molecular target: Man(a1-3)[Man(a1-6)]Man
# How it was run: as §1
# [20] = molecular target: Man(a1-3)[Man(a1-6)]Man(a1-6)[Man(a1-2)Man(a1-3)]Man(b1-4)GlcNAc(b1-4)GlcNAc
# How it was run: as §1
# [21] = molecular target: Man(a1-3)[Man(a1-6)]Man(a1-6)[Man(a1-3)]Man
# How it was run: as §1
# [22] = molecular target: Man(a1-3)[Man(a1-6)]Man(a1-6)[Man(a1-3)]Man(b1-4)GlcNAc(b1-4)GlcNAc
# How it was run: as §1
# [23] = molecular target: Man(a1-3)[Man(a1-6)]Man(b1-4)GlcNAc(b1-4)GlcNAc
# How it was run: as §1
# [24] = molecular target: Man(a1-6)Man
# How it was run: as §1
# [25] = molecular target: Man(b1-4)GlcNAc
# How it was run: as §1
# [26] = molecular target: Neu5Ac(a2-3)Gal
# How it was run: as §1
# [27] = molecular target: Neu5Ac(a2-3)Gal(b1-3)GalNAc
# How it was run: as §1
# [28] = molecular target: Neu5Ac(a2-3)Gal(b1-3)GalNAc(b1-3)Gal(a1-4)Gal(b1-4)Glc
# How it was run: as §1
# [29] = molecular target: Neu5Ac(a2-3)Gal(b1-3)GalNAc(b1-4)[Neu5Ac(a2-3)]Gal(b1-4)Glc
# How it was run: as §1
# [30] = molecular target: Neu5Ac(a2-3)Gal(b1-3)GalNAc(b1-4)[Neu5Ac(a2-8)Neu5Ac(a2-3)]Gal(b1-4)Glc
# How it was run: as §1
# [31] = molecular target: Neu5Ac(a2-3)Gal(b1-3)GalNAc6S
# How it was run: as §1
# [32] = molecular target: Neu5Ac(a2-3)Gal(b1-3)GlcNAc
# How it was run: as §1
# [33] = molecular target: Neu5Ac(a2-3)Gal(b1-3)GlcNAc(b1-3)Gal(b1-3)GlcNAc
# How it was run: as §1
# [34] = molecular target: Neu5Ac(a2-3)Gal(b1-3)GlcNAc(b1-3)Gal(b1-4)GlcNAc
# How it was run: as §1
# [35] = molecular target: Neu5Ac(a2-3)Gal(b1-3)GlcNAc(b1-3)GalNAc
# How it was run: as §1
# [36] = molecular target: Neu5Ac(a2-3)Gal(b1-3)GlcNAc6S
# How it was run: as §1
# [37] = molecular target: Neu5Ac(a2-3)Gal(b1-3)[Fuc(a1-4)]GlcNAc
# How it was run: as §1
binder,measurement,setting,value
B1,glycan array binding signal (z-score),[1],-0.778
same,glycan array binding signal (z-score),[2],-0.445
same,glycan array binding signal (z-score),[3],-0.749
same,glycan array binding signal (z-score),[4],-0.347
same,glycan array binding signal (z-score),[5],-0.677
same,glycan array binding signal (z-score),[6],0.143
same,glycan array binding signal (z-score),[7],-0.562
same,glycan array binding signal (z-score),[8],1.08
same,glycan array binding signal (z-score),[9],-0.722
same,glycan array binding signal (z-score),[10],-0.642
same,glycan array binding signal (z-score),[11],-0.556
same,glycan array binding signal (z-score),[12],-0.562
same,glycan array binding signal (z-score),[13],-0.547
same,glycan array binding signal (z-score),[14],-0.613
same,glycan array binding signal (z-score),[15],-0.542
same,glycan array binding signal (z-score),[16],0.21
same,glycan array binding signal (z-score),[17],-0.646
same,glycan array binding signal (z-score),[18],2.16
same,glycan array binding signal (z-score),[19],-0.147
same,glycan array binding signal (z-score),[20],-0.553
same,glycan array binding signal (z-score),[21],-0.594
same,glycan array binding signal (z-score),[22],0.033
same,glycan array binding signal (z-score),[23],-0.603
same,glycan array binding signal (z-score),[24],-0.084
same,glycan array binding signal (z-score),[25],-0.797
same,glycan array binding signal (z-score),[26],-0.156
same,glycan array binding signal (z-score),[27],0.131
same,glycan array binding signal (z-score),[28],-0.564
same,glycan array binding signal (z-score),[29],1.61
same,glycan array binding signal (z-score),[30],0.242
same,glycan array binding signal (z-score),[31],-0.535
same,glycan array binding signal (z-score),[32],0.027
same,glycan array binding signal (z-score),[33],-0.639
same,glycan array binding signal (z-score),[34],-0.288
same,glycan array binding signal (z-score),[35],-0.168
same,glycan array binding signal (z-score),[36],-0.521
same,glycan array binding signal (z-score),[37],-0.532

# 2 entries picked at random from those above:
binder,measurement,setting,value
B1,glycan array binding signal (z-score),[15],-0.542
same,glycan array binding signal (z-score),[32],0.027

# — the supplement of paper PMC8728848
